Results are given in words; binding and its absence hold for the method and conditions named. In cells and extracts the contact can be indirect. Some binding calls cover weakened binding; strength is not graded here.
Target: Clusterin (CLU) (human (endogenous in SMMC7721, HCCLM3 and HepG2)) (UniProt P10909)
Assay: co-IP; pre-cleared whole cell lysates of SMMC7721, HCCLM3 and HepG2 cells, with or without 1 µg/ml tunicamycin for 24 h, incubated with goat anti-CLU antibody conjugated to AminoLink Plus Resin overnight at 4°C; gentle non-reducing, non-denaturing elution; Western blot with anti-GRP78

Chains of the proteins cited; added tags and fusions are not shown. Residues count along the entry.
UniProt P10909, residues 23-449: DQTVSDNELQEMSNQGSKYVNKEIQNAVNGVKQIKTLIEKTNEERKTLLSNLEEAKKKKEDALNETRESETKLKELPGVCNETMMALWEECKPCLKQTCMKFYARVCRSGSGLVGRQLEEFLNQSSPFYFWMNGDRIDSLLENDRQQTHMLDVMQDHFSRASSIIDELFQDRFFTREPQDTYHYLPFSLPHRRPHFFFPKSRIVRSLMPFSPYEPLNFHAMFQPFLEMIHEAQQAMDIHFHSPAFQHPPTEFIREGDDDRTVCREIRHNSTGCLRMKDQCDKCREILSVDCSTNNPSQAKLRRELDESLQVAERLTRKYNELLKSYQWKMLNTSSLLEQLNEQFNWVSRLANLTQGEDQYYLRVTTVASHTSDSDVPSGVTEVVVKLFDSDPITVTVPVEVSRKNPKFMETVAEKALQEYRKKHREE
UniProt P11021, residues 19-654: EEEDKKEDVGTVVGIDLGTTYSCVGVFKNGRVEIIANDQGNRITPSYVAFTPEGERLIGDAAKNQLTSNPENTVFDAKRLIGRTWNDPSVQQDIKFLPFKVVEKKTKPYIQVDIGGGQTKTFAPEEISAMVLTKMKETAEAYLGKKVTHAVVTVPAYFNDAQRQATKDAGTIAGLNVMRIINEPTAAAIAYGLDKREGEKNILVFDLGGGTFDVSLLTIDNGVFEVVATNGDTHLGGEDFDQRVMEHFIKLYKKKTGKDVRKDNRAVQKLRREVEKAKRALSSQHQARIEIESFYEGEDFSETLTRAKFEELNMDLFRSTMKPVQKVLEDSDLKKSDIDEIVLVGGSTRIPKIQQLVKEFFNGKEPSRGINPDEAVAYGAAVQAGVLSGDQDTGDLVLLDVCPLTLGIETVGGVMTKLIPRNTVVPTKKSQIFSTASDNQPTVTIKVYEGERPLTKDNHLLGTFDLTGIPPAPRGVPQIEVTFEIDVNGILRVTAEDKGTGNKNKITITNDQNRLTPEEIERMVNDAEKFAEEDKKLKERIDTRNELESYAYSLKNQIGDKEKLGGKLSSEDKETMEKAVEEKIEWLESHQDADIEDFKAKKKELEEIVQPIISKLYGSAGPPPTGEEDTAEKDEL

binding: binds
Substance: Glucose-regulated protein 78 (GRP78) (from UniProt P11021 19-654)

Reference: PMC3573055
